No constants are given. Whether binding was seen depends on the method and setting. Binding can be weak; no strength is given.
Target: GST-RNF19A (human) (UniProt Q9NV58)
Test: pull-down; GST-RNF19A proteins immobilised on GST beads, incubated with purified His-tagged proteins or His alone; western blot; both purified

Sequences of proteins named here, by UniProt entry; tags and fusion partners are left off. A change or cut given only in a name is not applied to a line headed by its entry. Residues count along the entry.
UniProt Q9NV58: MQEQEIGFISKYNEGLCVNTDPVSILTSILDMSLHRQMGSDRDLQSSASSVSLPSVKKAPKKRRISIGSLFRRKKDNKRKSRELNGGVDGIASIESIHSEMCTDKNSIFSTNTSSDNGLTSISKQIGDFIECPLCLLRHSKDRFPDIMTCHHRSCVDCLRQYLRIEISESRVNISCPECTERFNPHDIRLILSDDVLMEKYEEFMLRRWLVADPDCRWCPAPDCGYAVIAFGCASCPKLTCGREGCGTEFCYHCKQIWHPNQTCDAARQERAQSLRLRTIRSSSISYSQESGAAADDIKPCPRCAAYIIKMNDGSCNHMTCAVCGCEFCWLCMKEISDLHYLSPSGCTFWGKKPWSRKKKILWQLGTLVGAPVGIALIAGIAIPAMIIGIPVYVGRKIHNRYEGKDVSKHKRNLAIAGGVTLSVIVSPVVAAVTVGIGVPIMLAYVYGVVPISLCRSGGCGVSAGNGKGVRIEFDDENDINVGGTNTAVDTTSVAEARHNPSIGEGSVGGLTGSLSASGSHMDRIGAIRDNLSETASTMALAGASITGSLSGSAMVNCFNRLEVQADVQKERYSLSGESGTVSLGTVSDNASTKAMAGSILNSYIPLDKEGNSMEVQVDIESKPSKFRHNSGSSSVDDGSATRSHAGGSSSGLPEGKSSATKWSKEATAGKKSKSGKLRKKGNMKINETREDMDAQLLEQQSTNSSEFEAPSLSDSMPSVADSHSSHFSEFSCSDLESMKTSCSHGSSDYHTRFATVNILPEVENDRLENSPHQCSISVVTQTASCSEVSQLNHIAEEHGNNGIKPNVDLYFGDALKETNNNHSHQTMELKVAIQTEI
UniProt Q99728, residues 26-327: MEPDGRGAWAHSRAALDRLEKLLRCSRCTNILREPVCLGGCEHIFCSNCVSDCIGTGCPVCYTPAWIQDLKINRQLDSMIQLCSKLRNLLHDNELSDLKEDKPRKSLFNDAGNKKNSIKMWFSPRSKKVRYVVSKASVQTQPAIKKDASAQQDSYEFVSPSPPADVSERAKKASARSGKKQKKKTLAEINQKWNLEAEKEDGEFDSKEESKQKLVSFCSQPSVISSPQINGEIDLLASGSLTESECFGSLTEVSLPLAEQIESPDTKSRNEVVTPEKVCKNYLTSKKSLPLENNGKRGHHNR

His-BARD1 (26-327) (from UniProt Q99728 26-327) (domain or fragment)
binding: binds
